Experimental findings from article doi:10.1101/2025.08.05.668778 (bioRxiv, 2025) are described below.

By UniProt entry, the sequences of proteins in these tests, tags left out. Residues count along the entry.
UniProt P19401, residues 42-545: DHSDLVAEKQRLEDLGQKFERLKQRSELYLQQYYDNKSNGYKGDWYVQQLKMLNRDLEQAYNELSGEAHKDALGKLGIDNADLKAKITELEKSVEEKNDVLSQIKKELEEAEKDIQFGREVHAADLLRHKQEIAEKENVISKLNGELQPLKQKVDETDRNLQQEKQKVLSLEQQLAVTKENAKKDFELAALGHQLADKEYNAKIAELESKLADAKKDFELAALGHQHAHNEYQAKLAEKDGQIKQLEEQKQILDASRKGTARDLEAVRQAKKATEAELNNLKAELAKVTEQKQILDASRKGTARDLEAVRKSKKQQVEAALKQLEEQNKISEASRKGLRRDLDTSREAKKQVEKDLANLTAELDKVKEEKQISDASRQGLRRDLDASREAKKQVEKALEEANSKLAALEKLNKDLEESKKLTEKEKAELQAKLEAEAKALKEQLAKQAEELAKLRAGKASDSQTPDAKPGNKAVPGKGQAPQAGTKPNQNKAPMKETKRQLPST
UniProt P08603, residues 19-1231: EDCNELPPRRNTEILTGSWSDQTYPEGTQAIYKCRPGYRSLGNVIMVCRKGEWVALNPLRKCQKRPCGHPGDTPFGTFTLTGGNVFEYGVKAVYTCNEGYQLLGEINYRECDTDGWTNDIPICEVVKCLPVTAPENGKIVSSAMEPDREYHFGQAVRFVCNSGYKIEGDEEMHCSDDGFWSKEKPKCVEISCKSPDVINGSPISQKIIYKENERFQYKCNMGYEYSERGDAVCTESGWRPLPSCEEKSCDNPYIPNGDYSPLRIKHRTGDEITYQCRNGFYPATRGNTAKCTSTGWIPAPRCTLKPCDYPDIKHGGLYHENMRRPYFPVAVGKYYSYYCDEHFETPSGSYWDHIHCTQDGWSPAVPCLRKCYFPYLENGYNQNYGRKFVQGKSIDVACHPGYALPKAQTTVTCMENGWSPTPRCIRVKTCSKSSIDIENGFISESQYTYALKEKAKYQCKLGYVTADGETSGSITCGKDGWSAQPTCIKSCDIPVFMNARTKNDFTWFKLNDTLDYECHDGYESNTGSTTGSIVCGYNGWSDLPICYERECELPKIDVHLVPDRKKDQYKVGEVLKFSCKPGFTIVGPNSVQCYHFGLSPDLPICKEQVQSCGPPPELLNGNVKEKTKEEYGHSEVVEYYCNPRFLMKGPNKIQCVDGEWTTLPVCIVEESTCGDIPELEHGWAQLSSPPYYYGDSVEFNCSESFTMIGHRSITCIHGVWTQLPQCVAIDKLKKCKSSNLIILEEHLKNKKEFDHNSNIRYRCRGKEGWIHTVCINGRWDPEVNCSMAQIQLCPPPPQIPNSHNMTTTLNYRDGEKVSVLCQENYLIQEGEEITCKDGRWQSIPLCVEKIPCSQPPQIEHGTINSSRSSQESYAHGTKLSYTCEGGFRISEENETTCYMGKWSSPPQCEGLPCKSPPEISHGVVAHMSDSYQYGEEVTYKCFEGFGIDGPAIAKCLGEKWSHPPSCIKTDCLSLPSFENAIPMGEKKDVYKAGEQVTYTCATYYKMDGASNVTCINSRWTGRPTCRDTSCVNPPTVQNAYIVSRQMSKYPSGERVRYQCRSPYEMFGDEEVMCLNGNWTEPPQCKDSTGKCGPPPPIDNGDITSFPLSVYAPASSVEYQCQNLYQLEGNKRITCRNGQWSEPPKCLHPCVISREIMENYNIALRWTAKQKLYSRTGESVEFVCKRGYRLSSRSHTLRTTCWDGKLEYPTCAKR

The target of the test is M12 protein (Streptococcus pyogenes) (UniProt P19401). The test can be described thus: ELISA; M, Enn or FbaA protein coated on wells (20 μg/ml in PBS pH 7.2, overnight 4 °C); soluble intact factor H 10 μg/ml, 1 h, RT; bound FH detected with mouse monoclonal anti-human FH and HRP anti-mouse IgG; uncoated wells subtracted; values normalized to wild type; both purified. Background: In an ELISA, binding on a coated surface is turned into a signal by an enzyme label.

These are yes or no findings as the source states them, for the method shown.

In the case of “factor H (intact) (from UniProt P08603 19-1231)”, the binding result is reported as “no binding (tested: 10 μg/ml factor H)”.
